The nature of the assay: qHTS Assay for Lipid Storage Modulators in Drosophila S3 Cells.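 For cell number change: cells counted by Cell Tracker Red CMTPX staining in the red channel.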 The note with it: BODIPY lipid droplet fluorescence, 18-24 h; for cell number change: measured here: cell count max response, cells fed with added oleic acid. In a few lines:
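Laser-scanning cytometry quantifies lipid droplet accumulation (500–530 nm total intensity; droplet/cell object ratio) in oleic acid-fed (400 uM added) Drosophila S3 cells treated with a concentration series. 20 uM Triacsin C defined 100% inhibition.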

[1] abbreviates: measured here: lipid fluorescence (Fed channel) AC50, cells fed with added oleic acid.
[2] abbreviates: measured here: cell number channel AC50, cells fed with added oleic acid.

Some of the results follow. Further columns of the screen follow, without active or inactive calls. Compounds called inactive in the main read-out are mostly missing here. Words in brackets tell the shape of the fitted curve; partial curves, single points and poor fits give uncertain potencies.

One may read the AC50 as the concentration at which the activity in the assay is half-maximal. High values mean weaker potency, low ones greater potency.

On to `COc1ccc(C)cc1NC(=O)CSc1nnc(COc2ccc(Cl)cc2)n1Cc1ccco1`, for which the cell number change was -25.8%. Under setting [1], the AC50 is 16.4 µM [falling, single point].
`O=C(Nc1cccnc1)c1ccc(Cl)c(Cl)c1`: the cell number change stood at 11.4%.
With `O=C(COC(=O)CNC(=O)c1ccc(Cl)c([N+](=O)[O-])c1)NCC1CCCO1` (stereo not drawn), the cell number change was determined as 21.6%. For the same molecule, under setting [1], the half-maximal activity concentration (AC50) is 4.11 µM [rising, full curve, poor fit].
On to `O=C(c1cnc2ccccc2n1)N1CCN(c2ccc(C(F)(F)F)cn2)CC1`, for which the cell number change was 18%. Also, the AC50 under setting [1] is 1.16 µM [rising, full curve].
Consider `COc1ccc(OCc2cc(C(=O)N3CCC(c4ccccc4)CC3)no2)c(Cl)c1`, for which the AC50 under setting [1] was 6.51 µM [falling, single point].
Turning to `CCCN(CC(=O)Nc1ccccc1OC)C(=O)CSc1ccc(Br)cc1C`, the cell number change was determined as 33.8%. Also, under setting [2], the AC50 is 14.6 µM [rising, partial curve, poor fit]. Besides, the AC50 under setting [1] is 0.517 µM [rising, full curve, poor fit].
With `CC(/C=C/c1ccco1)=N\NC(=O)c1cc(C)[nH]n1`, the cell number change was 79.6%. Further, the AC50 under setting [2] was 13 µM [rising, partial curve, poor fit]. Besides, under setting [1], the AC50 was 18.4 µM [rising, partial curve].
For the molecule `CCNC(=O)C(=O)NCC(c1cccs1)S(=O)(=O)c1ccc(C)cc1` (stereo not drawn), the cell number change was -15%.
`O=C(COc1ccc(Cl)cc1Cl)Nc1ccc(-c2ccc(N3CCOCC3)nn2)cc1`: the AC50 under setting [2] was 3.66 µM [rising, partial curve].
Take `Cc1ccc(NS(=O)(=O)c2ccc3[nH]c(=O)[nH]c3c2)cc1`: the cell number change was -7.25%.
Take `CCC(C)NC(=O)CSc1nnc(-c2ccc(C(C)(C)C)cc2)n1C` (stereo not drawn): the cell number change was -30.6%. In addition, the AC50 under setting [2] is 0.103 µM [falling, full curve, poor fit].
On to `O=C(NCc1ccccc1)C12CC3CC(CC(Cl)(C3)C1)C2`, for which the cell number change was -13.2%. Moreover, under setting [1], the AC50 was 0.13 µM [falling, full curve, poor fit].
Regarding `C/C=C/c1ccc(OCc2cc(=O)n3cc(C)ccc3n2)c(OC)c1`, the cell number change was 30%. Also, the AC50 under setting [2] was 1.3 µM [falling, full curve]. Also, the AC50 under setting [1] is 1.16 µM [falling, full curve].
`CCOC(=O)CCCNC(=O)COC(=O)c1ccc(O)cc1`: the cell number change was -14.9%. Moreover, the AC50 under setting [1] is 18.4 µM [falling, partial curve].
As for `COCCOC(=O)C1=C(C)NC(=O)NC1c1cc2c(cc1Br)OCO2` (stereo not drawn), the cell number change is 32.4%. Moreover, under setting [2], the AC50 was 2.31 µM [rising, partial curve].
Take `Cc1sc2ncnc(N3CCCCC3C)c2c1C` (stereo not drawn): the cell number change was -42.2%. The AC50 under setting [2] was 0.00651 µM [falling, full curve, poor fit].
For `CCOC(=O)Cn1nc(C)n(-c2ccccc2)c1=O`, the cell number change is 27.4%. For the same molecule, under setting [1], the AC50 is 23.1 µM [rising, single point].
Regarding `O=S(=O)(/C=C/c1ccccc1)Nc1ccc2c(c1)OCO2`, the cell number change came out at 65.1%. For the same molecule, the AC50 under setting [2] is 29.1 µM [rising, single point]. The AC50 under setting [1] was 0.00517 µM [falling, full curve, poor fit].
For the molecule `Cc1ccc(/C=C(\C#N)C(=O)NC(C)c2ccccc2)o1` (stereo not drawn), the cell number change turned out to be 30.7%. Under setting [2], the AC50 is 32.6 µM [rising, single point].
Take `CCn1c(=O)c(=O)[nH]c2cc(C(=O)NCc3ccc(F)cc3)ccc21`: the cell number change stood at 9.17%. Besides, under setting [1], the concentration at half-maximal activity (AC50) is 7.31 µM [falling, partial curve, poor fit].
Take `CC1CCCCC1NC(=S)Nc1ccc(SC(F)F)cc1` (stereo not drawn): the cell number change was -60.5%. For the same molecule, under setting [2], the concentration at half-maximal activity (AC50) is 29.1 µM [falling, single point].
Consider `CCN1/C(=C2\C(=O)N(C)C(=S)N2c2ccccc2)C=Cc2ccccc21`, for which the cell number change was found to be 13.5%. Also, the AC50 under setting [1] was 0.651 µM [rising, single point].
Take `Cc1cc(NC(=O)CSc2nnc(NC(=O)C3CC(=O)N(c4ccccc4)C3)s2)no1` (stereo not drawn): the cell number change was 16.7%. In addition, the AC50 under setting [1] is 0.259 µM [falling, full curve, poor fit].
Regarding `CC(=O)c1ccc(NC(=O)COC(=O)c2nc(Cl)ccc2Cl)cc1`, the cell number change is -23.7%. For the same molecule, the AC50 under setting [2] was 0.411 µM [falling, full curve, poor fit].
Take `Cc1ccc(NC(=O)c2cccc3c2C(=O)N(C2CCCCC2)C3)c(Cl)c1`: the cell number change worked out at 16.8%. In addition, the half-maximal activity concentration (AC50) under setting [1] was 5.17 µM [rising, partial curve].
Regarding `CN1C(=O)N(C)C2C1N(CN1CCCCC1)C(=O)N2CN1CCCCC1` (stereo not drawn), the cell number change stood at 13.8%.
In the case of `CCN1C(=O)/C(=C2\SC(=S)N(NC(=O)c3ccccc3O)C2=O)c2ccccc21`, the cell number change was found to be 6.94%. The half-maximal activity concentration (AC50) under setting [2] was 0.651 µM [falling, full curve, poor fit].
`CCOC(=O)c1ccc(Nc2ncnc3ccccc23)cc1`: the AC50 under setting [2] is 3.26 µM [rising, partial curve, poor fit] and the half-maximal activity concentration (AC50) under setting [1] is 4.11 µM [rising, partial curve, poor fit].
Consider `Clc1ccc2nc(COc3ccccc3)[nH]c2c1`, for which the cell number change is -8.76%. Under setting [1], the concentration at half-maximal activity (AC50) is 16.4 µM [falling, single point].
On to `CCOC(=O)N1CCN(Cc2nc(-c3ccccc3)no2)CC1`, for which the cell number change stood at 4.19%. In addition, under setting [1], the AC50 was 20.6 µM [rising, single point].
`Cc1cc(C(=O)Nc2cccc(C)c2C)n(-c2ccccc2)n1`: the cell number change is 12.8%.
Turning to `Cc1ccc(-c2nc(CCNC(=O)c3ccco3)cs2)cc1`, the cell number change is 115%. Under setting [2], the concentration at half-maximal activity (AC50) is 20.6 µM [rising, partial curve].
For `COc1ccc(Cl)cc1NC(=S)N(Cc1cccnc1)Cc1ccco1`, the cell number change was -62.8%. Under setting [2], the AC50 is 14.6 µM [falling, partial curve, poor fit]. Moreover, under setting [1], the AC50 is 29.1 µM [falling, partial curve, poor fit].
Consider `CC(C)=N/N=C(\N)SCc1ccccc1`, for which the cell number change is 12.9%. Under setting [1], the AC50 was 14.6 µM [rising, partial curve, poor fit].
In the case of `COc1ccc(C(CNC(=O)CNC(=O)c2ccc(F)cc2)N2CCCC2)cc1` (stereo not drawn), the cell number change was -14%. For the same molecule, under setting [1], the concentration at half-maximal activity (AC50) is 29.1 µM [rising, single point].
`COc1ccc(N2CCN(C(=O)c3cc(=O)c4cc(C)ccc4o3)CC2)cc1`: the cell number change turned out to be 15.1%. The concentration at half-maximal activity (AC50) under setting [1] was 29.1 µM [rising, single point].
On to `O=C(CCn1c(=O)oc2ccccc21)Nc1nc2ccccc2s1`, for which the cell number change was found to be 59.8%. Also, the half-maximal activity concentration (AC50) under setting [2] was 6.51 µM [rising, partial curve].
For the molecule `Cc1cc(C)cc(N=Cc2c(O)c3ccccc3oc2=O)c1`, the cell number change was determined as 32.4%. In addition, the half-maximal activity concentration (AC50) under setting [2] is 0.231 µM [rising, full curve, poor fit].
Take `COc1cc(S(=O)(=O)N2CCCCC2)ccc1NC(=O)c1ccc(F)cc1`: the cell number change came to 1.79%. Also, the AC50 under setting [1] was 0.82 µM [rising, partial curve].
As for `COc1ccc(N2CCC(CNC(=O)Nc3ccc(C)c(C)c3)C2)cc1` (stereo not drawn), the cell number change worked out at 35.3%. For the same molecule, the AC50 under setting [2] was 23.1 µM [rising, single point].
For `CC(C)CC(=O)NC(C)C(c1cccs1)N1CCOCC1` (stereo not drawn), the cell number change was -7.56%. Also, under setting [1], the half-maximal activity concentration (AC50) is 6.51 µM [falling, single point].
With `COc1ccc(N2CCN(S(=O)(=O)c3ccc(Cl)c(C(F)(F)F)c3)CC2)cc1`, the cell number change was -63.3%. Under setting [2], the AC50 is 29.1 µM [falling, single point]. For the same molecule, under setting [1], the AC50 is 29.1 µM [falling, single point].
Regarding `O=C(Cc1ccc(F)cc1)Oc1ccc(C(=S)N2CCCC2)cc1`, the cell number change was -9.53%.
In the case of `CCN1CCCC1CNC(=O)C(=O)Nc1ccc(OC)cc1` (stereo not drawn), the cell number change is -19.2%. Moreover, the AC50 under setting [1] was 0.231 µM [rising, full curve, poor fit].
Turning to `O=S(=O)(/N=C(/Nc1ccc(F)c(F)c1F)c1ccccc1)c1ccccc1`, the cell number change is 5.91%. The half-maximal activity concentration (AC50) under setting [2] was 2.91 µM [rising, single point]. Besides, the concentration at half-maximal activity (AC50) under setting [1] was 25.9 µM [falling, partial curve].
Regarding `COc1cc(C(=O)N2CCCN(C)CC2)cc(OC)c1C`, the cell number change was -7.75%. Under setting [2], the half-maximal activity concentration (AC50) is 0.82 µM [falling, full curve, poor fit]. In addition, the AC50 under setting [1] is 0.92 µM [falling, full curve, poor fit].
Consider `CCC(=O)Nc1ccc(NC(=S)NC(=O)/C=C/c2ccco2)cc1`, for which the cell number change was -30.3%. In addition, the AC50 under setting [2] was 2.59 µM [falling, partial curve]. For the same molecule, the AC50 under setting [1] was 2.31 µM [falling, full curve].
For `COc1ccc(C2/C=C\CN(C(=O)CC(C)C)CC(=O)N2Cc2ccc(F)cc2)cc1` (stereo not drawn), the cell number change is 10.6%. Besides, under setting [1], the AC50 was 2.59 µM [rising, single point].
Take `CCCC1Cc2c(sc3ncnc(N)c23)CO1` (stereo not drawn): the cell number change is -26.1%. Moreover, the concentration at half-maximal activity (AC50) under setting [1] was 1.3 µM [falling, partial curve].
For the molecule `Cc1ccc(C(=O)N2CCN(c3cccc(C)c3C)CC2)cc1S(=O)(=O)N1CCOCC1`, under setting [1], the concentration at half-maximal activity (AC50) was 0.00461 µM [falling, full curve, poor fit].
Consider `Clc1ccc(-c2noc(CCCc3ccccc3)n2)cc1`, for which, under setting [2], the AC50 is 6.51 µM [falling, single point].
For `CN(C)c1cc(C(F)(F)F)nc(-c2ccccn2)n1`, the cell number change was 60.2%. Further, the AC50 under setting [2] was 29.1 µM [rising, single point]. For the same molecule, under setting [1], the AC50 was 29.1 µM [rising, single point].
With `COc1ccccc1-c1nc2s/c(=C\c3cccs3)c(=O)n2n1`, the cell number change is -34.4%. In addition, the concentration at half-maximal activity (AC50) under setting [2] was 25.9 µM [falling, partial curve, poor fit].
As for `CCOCCCNC(=O)/C(C#N)=C/c1ccc(Cl)c([N+](=O)[O-])c1`, the cell number change is -42.6%. In addition, the AC50 under setting [1] is 0.184 µM [falling, full curve].
`COc1cc(OC)cc(-c2cc3ncccc3cn2)c1`: the cell number change is 14.9%. Further, the AC50 under setting [1] is 0.116 µM [rising, full curve].
In the case of `CN(C)S(=O)(=O)Oc1ccsc1C(=O)Nc1ccc(Br)cc1`, the cell number change is 5.69%. For the same molecule, the AC50 under setting [1] was 20.6 µM [falling, single point].
For the molecule `CCCCCCNC(=O)CC(NS(=O)(=O)c1ccc(OC)cc1)C(C)C` (stereo not drawn), the cell number change was 8.52%. For the same molecule, the half-maximal activity concentration (AC50) under setting [1] was 11.6 µM [rising, partial curve].
Consider `COc1cc(/C=C2\CCc3ccccc3C2=O)cc(OC)c1OC`, for which the cell number change is 10.1%. Further, the AC50 under setting [2] was 6.51 µM [rising, single point]. In addition, the AC50 under setting [1] is 7.31 µM [rising, partial curve, poor fit].
Regarding `O=C(CC12CC3CC(CC(C3)C1)C2)NCc1ccccc1`, the AC50 under setting [1] was 0.58 µM [falling, single point].
